Source: paper PMC5012265

Key:
Test in all cases: two-hybrid; GAL4-based Matchmaker Two-Hybrid System 3 (Clontech); DNA-binding domain fusions (pGBK-T7) in Y2HGOLD mated with activation domain fusions (pGAD-T7) in Y187; growth on SD-Trp-Leu-His-Ade and blue colour on SD-Trp-Leu-His-Ade + X-alpha-Gal
[1] = molecular target: NlbHLH1 (bHLH transcription factor of Nelumbo lutea), GAL4 DNA-binding domain fusion (Nelumbo lutea)
[2] = molecular target: NnTTG1 (WD40 protein of Nelumbo nucifera), GAL4 DNA-binding domain fusion (Nelumbo nucifera)
[3] = molecular target: NnbHLH1 (bHLH transcription factor of Nelumbo nucifera), GAL4 DNA-binding domain fusion (Nelumbo nucifera)

Row | binding [1] | binding [2] | binding [3] | Substance
1 | binds | binds | binds | NnMYB5 (R2R3-MYB transcription factor of Nelumbo nucifera), GAL4 activation domain fusion (from UniProt A0A1L2BPG4)
2 | binds |  | binds | NnTTG1 (WD40 protein of Nelumbo nucifera), GAL4 activation domain fusion (from UniProt A0A1L2BPH2)

No constants are given. Whether binding was seen depends on the method and setting. A result given as binding can be weak or reduced; the word gives no strength.
